This is an account of results in article PMC12797000.

The chains behind the UniProt entries cited, without tags or fusion partners.
UniProt P23594: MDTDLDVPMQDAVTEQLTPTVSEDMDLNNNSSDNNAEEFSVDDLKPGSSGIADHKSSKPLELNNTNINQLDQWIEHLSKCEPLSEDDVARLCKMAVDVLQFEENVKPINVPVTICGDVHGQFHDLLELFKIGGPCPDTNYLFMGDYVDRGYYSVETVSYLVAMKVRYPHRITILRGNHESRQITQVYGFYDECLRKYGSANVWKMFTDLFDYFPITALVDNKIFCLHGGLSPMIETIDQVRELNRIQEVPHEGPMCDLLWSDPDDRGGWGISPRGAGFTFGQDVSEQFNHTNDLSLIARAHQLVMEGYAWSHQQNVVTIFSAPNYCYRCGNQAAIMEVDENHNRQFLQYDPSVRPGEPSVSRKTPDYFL

Results are given in words; binding and its absence hold for the method and conditions named. Binding seen in cells or lysates may run through a third protein. Some entries that bind do so weakly or less than the wild type. Tags and fused reporters may be left off the sequences shown.

The target in the assay is T1, Cdc55^reg tagged with protein A (Cdc55^reg-ProtA) (yeast (Saccharomyces cerevisiae, BY4741)) (UniProt Q00362).
T1 sequence: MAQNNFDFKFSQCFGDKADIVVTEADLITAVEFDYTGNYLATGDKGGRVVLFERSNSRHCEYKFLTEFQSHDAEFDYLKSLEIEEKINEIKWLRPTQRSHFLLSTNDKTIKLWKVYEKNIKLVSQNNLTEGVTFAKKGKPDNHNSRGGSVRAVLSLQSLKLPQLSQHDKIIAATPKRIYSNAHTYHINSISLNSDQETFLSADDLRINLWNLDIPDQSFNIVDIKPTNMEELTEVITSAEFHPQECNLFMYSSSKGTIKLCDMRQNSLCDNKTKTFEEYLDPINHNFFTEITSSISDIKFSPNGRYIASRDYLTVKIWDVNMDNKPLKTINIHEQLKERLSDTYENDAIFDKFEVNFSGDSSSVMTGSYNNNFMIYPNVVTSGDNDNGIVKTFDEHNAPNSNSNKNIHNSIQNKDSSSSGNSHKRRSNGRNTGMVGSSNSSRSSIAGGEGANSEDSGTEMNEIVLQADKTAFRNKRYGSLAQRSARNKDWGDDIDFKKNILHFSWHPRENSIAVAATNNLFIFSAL
The assay can be described thus: pull-down; Cdc55^reg-ProtA from BY4741 yeast lysate on IgG beads, eluted by TEV protease; western blot; control: lysate with non-tagged Cdc55.

In the case of “Pph21^cat, catalytic subunit of PP2A (from UniProt P23594 1-369) (enzyme)”, the binding result is recorded as “binds”.
